The results in this text go back to article PMC10163288.

The chains are these.
B1: il10ra_site1_sap_15_mot_HHH_b2_04586_000000230_0001_1_16_H_._7cf5847eaa050a71bc877a27954f5424_0001_1_af2_0001_0000300021_0000001_0_0001 (protein)
chain: SSSSDKAFEILRRVIEELLELFRNGNPEEAEELAREALEELRESGNRLAAWQLEEAIRLEKSSSS
B2: il10ra_site1_normal_mot_HHH_b1_05357_000000034_0001_23_39_H_._HHH_b2_03710_0002_0000100001_0000001_0_af2pred_0001 (protein)
chain: SSSSDEEEFQERVEELLEEAKKISDREEVAYLLIRAFALANQANDPELKELVEEVAKELISSSSS
B3: il10ra_site1_normal_mot_HHH_b1_03031_af2_000000117_0001_17_33_H_._HHH_b2_06828_af2_0001_0000700028_0000002_0_af2pred_0001 (protein)
chain: SSSSSEEVEKLIEEAKELLEEGNPEEAEELLAKALYLASRAGDRELALRITRLIAEILQSSSSSS
B4: il10ra_site1_normal_mot_HHH_b1_05672_af2_000000246_0001_1_19_H_._HHH_b1_01868_0001_0000500033_0000001_0 (protein)
chain: SSSSSEMEEYARIAARFARNAAETGNPELARRILRRAEEALKHANDEEALELIEELLEELSSSSS
B5: il10ra_site1_normal_mot_HHH_b2_00612_000000251_0001_1_14_H_._HHH_b1_00889_0002_0000300025_0000002_0 (protein)
chain: SSSSDEVLRIAREAVELLRELLERGDEEEAEEVLERARELLEEAGNQLAVESLEYFFRAFSSSSS
B6: il10ra_site1_normal_mot_HHH_b1_00814_af2_000000078_0001_43_57_H_._HHH_b2_07731_0001_0000100001_0000001_0_af2pred_0001 (protein)
chain: SSSSDTEERVEELLEQAEELHKEGNPEEAVRLIREAIELAAQANDPELAQLVAEFAAELISSSSS
B7: il10ra_site1_normal_mot_HHH_b1_07466_000000214_0001_1_19_H_._HHH_b1_02849_af2_0001_0000300013_0000002_0 (protein)
chain: SSSSSLERKVELAIRFAEALLKAGNPEAAERLIRLLLDVVRRLGNEELAEELERILEEIRKSSSS
B8: il10ra_site1_normal_mot_7f9b3cf633cfd27bca007b62ade1be3b_0001_1_000000138_0001_17_32_H_._513c16ae44941e68898e0f7c259e5a28_0001_1_af2_0001_0000600018_0000001_0 (protein)
chain: DELEERLEELVKRGDEEKVAELAVRVAEEKGVFSPEQLEALRRFIEALFKDNEEAAKELARAVIN
B9: il10ra_site1_normal_mot_HHH_b1_07835_af2_000000063_0001_1_16_H_._HHH_b1_07298_af2_0001_0000200003_0000001_0_af2pred_0001 (protein)
chain: SSSSDEEEKVRELLEELEELLEEGDEEKFAQLAAEVARRIDENNNEELFRLLIEILSKWLKSSSS
B10: il10ra_site1_sap_13_mot_HHH_b2_00093_af2_000000025_0001_40_54_H_._HHH_b1_02510_0001_0000200028_0000001_1_0001 (protein)
chain: SSSSSSDLEELLEEIEEAIEEGDREKALKLAQEAIRLAFQKRDEEVLQRVWELVKRLASSSSSSS
B11: il10ra_site1_sap_18_mot_HHH_b1_07466_000000214_0001_1_19_H_._HHH_b1_05714_0001_0000200012_0000001_0_0001 (protein)
chain: SSSSSDLAREVYELLREAVELLHEGDREEARKVLEEAEELAEEAGNLNMLFNVEMLQRIASSSSS
B12: il10ra_site1_normal_mot_HHH_b2_07521_000000141_0001_20_37_H_._HHH_b1_01332_0001_0000100002_0000001_0_af2pred_0001 (protein)
chain: SSSSDEEEKRLRLALRLARFLIEQGDEEAARKLLEWIRELAKRANDEEALEEAQRLLEEVGSSSS
B13: il10ra_site1_normal_mot_HHH_b1_05865_af2_000000211_0001_1_17_H_._HHH_b2_01928_0001_0000400023_0000001_0 (protein)
chain: SSSSSSDLYELARELLELAFRFRDQELLKLVWEAYREANEHNDPRLLEELLEEAEEELSSSSSSS
B14: il10ra_site1_sap_20_mot_49468d6c54d8157f7969f91124172a68_0001_af2_000000173_0001_37_51_H_._HHH_b2_03073_0001_0000400027_0000001_0_0001_af2pred_0001 (protein)
chain: SSSSDQEEHIARLIEKLARLLAKNGNPEDAKKTVENALHAAKVLNDEEAHEILEELLKELSSSSS
B15: il10ra_site1_normal_mot_HHH_b2_01705_af2_000000069_0001_44_57_H_._HHH_b1_08172_af2_0001_0000400018_0000001_1_af2pred_0001 (protein)
chain: SSSSDEEEERLEELLEELRRALEEGDFEEAWKILEEISRLASRLSDRELAREAIELFLRGSSSSS
B16: il10ra_site1_normal_mot_HHH_b2_00230_000000227_0001_1_19_H_._HHH_b2_02595_0001_0000100008_0000002_0 (protein)
chain: SSSSDEWYRALREAIEEVLRLFREGNPEEARRLLEEFLRELEELGNRQAALQLRFLLRRISSSSS
B17: il10ra_site1_normal_mot_HHH_b2_00622_af2_000000153_0001_40_57_H_._HHH_b1_00148_0001_0000300014_0000001_0_af2pred_0001 (protein)
chain: SSSSSEELLRRLLKAAEQLLEKGNPELAKLTLRDAIAAARALGDEELLRLLEELLEEIEKSSSSS
B18: il10ra_site1_sap_22_mot_HHH_b2_02354_af2_000000157_0001_40_56_H_._HHH_b2_00262_af2_0001_0000400007_0000002_0_0001_af2pred_0001 (protein)
chain: SSSSSSEELKKLLEEVFELLRQGNKEEAEELLEEALELAEKLNDPLLVLLESLLEHIRGSSSSSS

The list shows a part of the results.

This assay has as its target il10ra, Q13651. The experiment in a line: yeast display titration.
Regarding B1, the “apparent Kd” value was “inactive: no binding seen”.

Take B2: the “apparent Kd” value is “inactive: no binding seen”.

As to B3, the “apparent Kd” value is “inactive: no binding seen”.

As to B4, the “apparent Kd” value is “inactive: no binding seen”.

On to B5, for which the “apparent Kd” value was “inactive: no binding seen”.

Regarding B6, the “apparent Kd” value is “inactive: no binding seen”.

For B7, the “apparent Kd” value was “inactive: no binding seen”.

As to B8, the “apparent Kd” value was “inactive: no binding seen”.

As for B9, the “apparent Kd” value is “inactive: no binding seen”.

Consider B10, for which the “apparent Kd” value is “inactive: no binding seen”.

Turning to B11, the “apparent Kd” value was “inactive: no binding seen”.

Consider B12, for which the “apparent Kd” value was “inactive: no binding seen”.

Turning to B13, the “apparent Kd” value was “inactive: no binding seen”.

On to B14, for which the “apparent Kd” value is “inactive: no binding seen”.

On to B15, for which the “apparent Kd” value is “inactive: no binding seen”.

For the molecule B16, the “apparent Kd” value was “inactive: no binding seen”.

As to B17, the “apparent Kd” value was “inactive: no binding seen”.

On to B18, for which the “apparent Kd” value was “inactive: no binding seen”.
